The target of one assay is T1, NOPT-biotin.
T1 sequence (peptide, N-methyl-proline (NMP) at position 1; biotin at the C-terminus): PYKEIEQLIELANYQV
The assay is described as follows: pull-down; biotinylated peptide (8 uM) on monoclonal anti-biotin beads, incubated with rat left ventricle lysate 2 h at 4°C; immunoblot with PLM antibodies; only the target purified.

Protein sequences, listed by entry. Tags and fused reporters are not part of them. Residues count along the entry.
UniProt O08589, residues 21-92: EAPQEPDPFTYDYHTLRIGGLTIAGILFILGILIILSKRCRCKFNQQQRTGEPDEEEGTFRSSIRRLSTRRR

The next assay has as its target T2, biotin-ahx-mini-OPT.
T2 sequence (peptide, biotin at the N-terminus with ahx-linker): PYKEIEQLIELANYQV
The assay is described as above.

Results are given in words; binding and its absence hold for the method and conditions named. Binding seen in cells or lysates may run through a third protein. Some results given as binding are weak or reduced against the parent protein; the word gives no strength.

For the substance “endogenous phospholemman (PLM) (from UniProt O08589 21-92)”, the binding result with NOPT-biotin and with biotin-ahx-mini-OPT was “binds” in each case.

(Values after publication PMC8215385, “Design of a Proteolytically Stable Sodium-Calcium Exchanger 1 Activator Peptide for In Vivo Studies” (Frontiers in Pharmacology, 2021).)
